Drawing on PMC11733299, this text covers binding for 1 molecule.

Results are given in words; binding and its absence hold for the method and conditions named. Some entries that bind do so weakly or less than the wild type.

Holding throughout (test): two-hybrid; mating-based split-ubiquitin system (mbSUS); CNGC (full length or TM domains) in pMetYCgate (Cub), CPK1 in pNXgate32-3HA (Nub); yeast THY.AP4; growth on SD/-Leu-Trp-His-Ade
For assay [1], the target named is T1, CNGC14-M (aa102-410) in pMetYCgate (Cub) (Arabidopsis thaliana) (UniProt Q9SJA4).
T1 sequence: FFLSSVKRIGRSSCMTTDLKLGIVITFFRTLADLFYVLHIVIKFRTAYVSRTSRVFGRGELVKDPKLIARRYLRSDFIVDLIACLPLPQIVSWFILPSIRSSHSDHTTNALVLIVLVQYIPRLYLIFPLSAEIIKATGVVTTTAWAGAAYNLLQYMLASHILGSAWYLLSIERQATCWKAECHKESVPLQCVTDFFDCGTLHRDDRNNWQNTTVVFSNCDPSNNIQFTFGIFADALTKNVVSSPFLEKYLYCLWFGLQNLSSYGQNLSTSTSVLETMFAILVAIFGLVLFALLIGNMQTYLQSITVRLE

Assay [2] addresses T2, full-length CNGC9 in pMetYCgate (Cub) (Arabidopsis thaliana) (UniProt Q9M0A4).
T2 sequence: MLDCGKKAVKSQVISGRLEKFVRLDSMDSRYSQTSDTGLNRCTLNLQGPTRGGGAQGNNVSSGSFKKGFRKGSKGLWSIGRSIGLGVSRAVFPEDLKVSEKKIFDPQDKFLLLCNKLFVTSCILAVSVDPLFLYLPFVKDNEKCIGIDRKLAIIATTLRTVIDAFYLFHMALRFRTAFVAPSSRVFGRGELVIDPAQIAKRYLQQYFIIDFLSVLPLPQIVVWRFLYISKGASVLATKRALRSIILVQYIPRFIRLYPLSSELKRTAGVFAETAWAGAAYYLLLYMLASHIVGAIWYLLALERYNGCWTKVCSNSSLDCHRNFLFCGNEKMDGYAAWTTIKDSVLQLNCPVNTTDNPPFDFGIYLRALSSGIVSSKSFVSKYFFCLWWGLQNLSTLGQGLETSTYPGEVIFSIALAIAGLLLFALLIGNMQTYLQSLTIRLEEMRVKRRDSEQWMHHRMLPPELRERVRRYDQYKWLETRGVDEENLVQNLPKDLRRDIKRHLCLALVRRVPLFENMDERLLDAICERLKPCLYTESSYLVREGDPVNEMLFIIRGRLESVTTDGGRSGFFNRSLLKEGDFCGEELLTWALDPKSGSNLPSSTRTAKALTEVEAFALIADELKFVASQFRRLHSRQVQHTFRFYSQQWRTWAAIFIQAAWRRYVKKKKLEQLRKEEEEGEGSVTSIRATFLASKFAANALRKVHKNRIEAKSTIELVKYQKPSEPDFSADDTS

Assay [3] has as its target T3, CNGC5-M (aa103-412) in pMetYCgate (Cub) (Arabidopsis thaliana) (UniProt Q8RWS9).
T3 sequence: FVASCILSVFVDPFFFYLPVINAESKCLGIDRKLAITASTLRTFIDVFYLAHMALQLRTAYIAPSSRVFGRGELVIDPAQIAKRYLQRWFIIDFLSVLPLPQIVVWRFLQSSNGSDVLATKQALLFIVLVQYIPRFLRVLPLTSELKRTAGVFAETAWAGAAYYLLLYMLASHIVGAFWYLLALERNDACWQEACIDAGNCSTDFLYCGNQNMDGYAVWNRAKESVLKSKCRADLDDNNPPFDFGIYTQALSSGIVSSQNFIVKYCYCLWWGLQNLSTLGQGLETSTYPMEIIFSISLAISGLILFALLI

For assay [4], the target named is T4, full-length CNGC5 in pMetYCgate (Cub) (Arabidopsis thaliana) (UniProt Q8RWS9).
T4 sequence: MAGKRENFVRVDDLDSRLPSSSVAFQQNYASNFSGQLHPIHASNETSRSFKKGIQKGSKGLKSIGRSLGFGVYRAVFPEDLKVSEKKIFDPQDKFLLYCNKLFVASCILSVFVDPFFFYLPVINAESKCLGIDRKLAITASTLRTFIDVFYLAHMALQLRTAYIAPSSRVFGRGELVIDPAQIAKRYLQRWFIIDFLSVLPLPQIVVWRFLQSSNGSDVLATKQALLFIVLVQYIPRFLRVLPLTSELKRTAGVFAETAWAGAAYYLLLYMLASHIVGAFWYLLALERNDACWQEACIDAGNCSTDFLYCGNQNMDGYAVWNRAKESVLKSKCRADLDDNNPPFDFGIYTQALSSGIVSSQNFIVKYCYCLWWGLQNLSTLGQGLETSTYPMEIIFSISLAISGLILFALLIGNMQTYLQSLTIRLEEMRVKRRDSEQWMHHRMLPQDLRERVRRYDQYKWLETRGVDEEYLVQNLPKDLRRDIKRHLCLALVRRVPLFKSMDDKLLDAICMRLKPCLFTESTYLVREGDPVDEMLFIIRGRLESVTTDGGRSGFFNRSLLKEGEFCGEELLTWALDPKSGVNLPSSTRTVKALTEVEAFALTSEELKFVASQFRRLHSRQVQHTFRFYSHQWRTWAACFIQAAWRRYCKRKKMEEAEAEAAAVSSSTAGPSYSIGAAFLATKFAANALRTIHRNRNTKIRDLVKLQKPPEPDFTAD

Assay [5] concerns the target T5, CNGC9-M (aa118-427) in pMetYCgate (Cub) (Arabidopsis thaliana) (UniProt Q9M0A4).
T5 sequence: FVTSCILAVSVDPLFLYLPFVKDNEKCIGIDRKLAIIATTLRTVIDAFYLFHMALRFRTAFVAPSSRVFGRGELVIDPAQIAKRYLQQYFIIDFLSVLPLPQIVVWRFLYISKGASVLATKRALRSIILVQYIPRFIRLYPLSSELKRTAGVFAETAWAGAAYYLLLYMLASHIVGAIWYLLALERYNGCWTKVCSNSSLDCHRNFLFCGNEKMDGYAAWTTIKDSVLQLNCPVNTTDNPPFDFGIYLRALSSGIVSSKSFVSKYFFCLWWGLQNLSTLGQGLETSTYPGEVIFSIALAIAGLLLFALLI

B1: Nub-CPK1 (calcium dependent protein kinase 1 in pNXgate32-3HA) (enzyme, UniProt Q06850 1-610)
chain: MGNTCVGPSRNGFLQSVSAAMWRPRDGDDSASMSNGDIASEAVSGELRSRLSDEVQNKPPEQVTMPKPGTDVETKDREIRTESKPETLEEISLESKPETKQETKSETKPESKPDPPAKPKKPKHMKRVSSAGLRTESVLQRKTENFKEFYSLGRKLGQGQFGTTFLCVEKTTGKEFACKSIAKRKLLTDEDVEDVRREIQIMHHLAGHPNVISIKGAYEDVVAVHLVMECCAGGELFDRIIQRGHYTERKAAELTRTIVGVVEACHSLGVMHRDLKPENFLFVSKHEDSLLKTIDFGLSMFFKPDDVFTDVVGSPYYVAPEVLRKRYGPEADVWSAGVIVYILLSGVPPFWAETEQGIFEQVLHGDLDFSSDPWPSISESAKDLVRKMLVRDPKKRLTAHQVLCHPWVQVDGVAPDKPLDSAVLSRMKQFSAMNKFKKMALRVIAESLSEEEIAGLKEMFNMIDADKSGQITFEELKAGLKRVGANLKESEILDLMQAADVDNSGTIDYKEFIAATLHLNKIEREDHLFAAFTYFDKDGSGYITPDELQQACEEFGVEDVRIEELMRDVDQDNDGRIDYNEFVAMMQKGSITGGPVKMGLEKSFSIALKL
Consider B1, for which the binding entry is “no binding” in assay [1]; “binds” in assay [2]; “no binding” in assay [3]; “binds” in assay [4]; “no binding” in assay [5].
